These are yes or no findings as the source states them, for the method shown. Binding seen in cells or lysates may run through a third protein. Some binding calls cover weakened binding; strength is not graded here.
Biological target: muscarinic acetylcholine receptor M3, mCitrine-tagged, wild type (M3R-mCit wt) (human) (UniProt P20309)
Assay: FRET or BRET; single-cell FRET imaging between β-arrestin2-mTurq and M3R-mCit in HEK293T cells co-transfected with GRK2; cells superfused with acetylcholine, 30 s per concentration; room temperature; extracellular buffer pH 7.3; amplitudes corrected for relative expression levels

Sequences of proteins named here, by UniProt entry; tags and fusion partners are left off.
UniProt P32121: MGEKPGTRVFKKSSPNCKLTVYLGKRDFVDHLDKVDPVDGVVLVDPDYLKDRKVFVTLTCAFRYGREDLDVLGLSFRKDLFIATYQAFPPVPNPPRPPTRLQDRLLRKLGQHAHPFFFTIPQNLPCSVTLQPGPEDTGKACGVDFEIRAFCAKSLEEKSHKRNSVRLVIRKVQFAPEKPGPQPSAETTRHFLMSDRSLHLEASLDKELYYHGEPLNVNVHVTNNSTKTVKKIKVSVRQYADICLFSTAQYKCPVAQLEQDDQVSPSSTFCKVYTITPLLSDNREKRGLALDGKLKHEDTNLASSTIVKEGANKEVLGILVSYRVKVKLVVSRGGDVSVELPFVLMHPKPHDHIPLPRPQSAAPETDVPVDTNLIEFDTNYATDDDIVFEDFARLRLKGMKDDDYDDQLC

For “β-arrestin2-mTurq (from UniProt P32121 1-409)”, the binding was “binds”.
